Results taken from PubChem BioAssay AID330 (DTP/NCI, 2004).
The list does not hold the whole screen: it is rich in T/C values a quarter to a half above the control, in often repeated tests (any T/C) and in doses without a T/C. Further doses and runs are listed elsewhere. T/C is the treated group as % of the vehicle group. Some entries give survivors of the animals treated and no T/C: the source files T/C as zero there, which appears to mark a toxic dose or a test without result, not a measured value. Some survivor counts are full or nearly so, which does not show that the dose was tolerated: survival well below the control is almost never listed, so the zero probably covers shortened survival too. Survivors were counted at the toxicity check, usually on the fifth day, unless a day is given; later deaths do not show. Schedule codes are those of the source, read here as Q, the interval in days (D) or hours (H), X, the number of doses. Some doses were run more than once; the results are listed from low to high. Where survival is the endpoint, this PubChem deposit counts one and a half times the control or more as active, and values a quarter to a half above the control carry no call in these data; other NCI protocols may use other cut-offs. Some T/C values carry the count of animals alive at the toxicity check (mostly the fifth day); where none is given, no animal had died by that day.

Tested on: P388 leukemia ip, CD2F1 mice, survival T/C
Test: NCI In Vivo Anticancer Drug Screen. Data for tumor model P388 Leukemia (intraperitoneal) in CD2F1 (CDF1) mice
Conditions: T/C endpoint: median survival time, higher T/C = longer survival
[1] = dose: 240.0 mg/kg/injection, schedule: Q01DX005 (ip), vehicle: saline with Tween-80
[2] = dose: 200.0 mg/kg/injection, schedule: Q01DX005 (ip), vehicle: saline with Tween-80
[3] = dose: 50.0 mg/kg/injection, schedule: Q01DX009 (ip), vehicle: saline with Tween-80
[4] = dose: 200.0 mg/kg/injection, schedule: Q01DX001 (ip), vehicle: Klucel (hydroxypropylcellulose) (HPC)
[5] = dose: 400.0 mg/kg/injection, schedule: Q01DX001 (ip), vehicle: Klucel (hydroxypropylcellulose) (HPC)
[6] = dose: 50.0 mg/kg/injection, schedule: Q01DX009 (ip), vehicle: Klucel (hydroxypropylcellulose) (HPC)
[7] = dose: 100.0 mg/kg/injection, schedule: Q01DX009 (ip), vehicle: Klucel (hydroxypropylcellulose) (HPC)
[8] = dose: 200.0 mg/kg/injection, schedule: Q01DX009 (ip), vehicle: Klucel (hydroxypropylcellulose) (HPC)

COc1cccc2c1C(=O)c1c(O)c3c(c(O)c1C2=O)CC(O)(/C(CO)=N/NC(=O)CCC(=O)N/N=C(\CO)C1(O)Cc2c(O)c4c(c(O)c2C(OC2CC(N)C(O)C(C)O2)C1)C(=O)c1c(OC)cccc1C4=O)CC3OC1CC(N)C(O)C(C)O1 (stereo not drawn)
T/C (dose: 0.2 mg/kg/injection, schedule: Q01DX009 (ip), vehicle: water): 127 % of control | T/C (dose: 0.39 mg/kg/injection, schedule: Q01DX009 (ip), vehicle: water): 148 % of control | T/C (dose: 0.78 mg/kg/injection, schedule: Q01DX009 (ip), vehicle: water): 148 % of control | T/C (dose: 4.7 mg/kg/injection, schedule: Q04DX003 (ip), vehicle: water): 131 % of control | T/C (dose: 18.8 mg/kg/injection, schedule: Q04DX003 (ip), vehicle: water): 140 % of control | survivor count (dose: 25.0 mg/kg/injection, schedule: Q01DX009 (ip), vehicle: water): 6 of 6 | T/C (dose: 37.5 mg/kg/injection, schedule: Q04DX003 (ip), vehicle: water): 133 % of control

COc1ccc2c(N=[N+]=[N-])ccnc2c1
survivor count [1]: 0 of 6

CCCCCCCCCCCCCCOCC(O)CN(CCO)CCO (stereo not drawn)
survivor count (dose: 100.0 mg/kg/injection, schedule: Q01DX009 (ip), vehicle: saline): 5 of 6 | survivor count (dose: 200.0 mg/kg/injection, schedule: Q01DX009 (ip), vehicle: saline): 3 of 6

COc1cc(C2c3cc4c(cc3[C@@H](OC3OC5CO[C@@H](c6cccs6)OC5C(O)C3O)[C@H]3COC(=O)C23)OCO4)cc(OC)c1OC (stereo partly drawn)
T/C (dose: 4.0 mg/kg/injection, schedule: Q01DX005 (ip), vehicle: saline): 140 % of control | T/C (dose: 8.0 mg/kg/injection, schedule: Q01DX005 (ip), vehicle: saline): 148 % of control [5 of 6 alive]

CC(C)CC(NC(=O)C(Cc1ccccc1)NC(=O)OCc1ccccc1)C(=O)O (stereo not drawn)
survivor count [2]: 5 of 6

CN(C)C1CCC(NC2=CC(=O)C(NC3CCC(N(C)C)CC3)=CC2=O)CC1 (stereo not drawn)
survivor count (dose: 12.5 mg/kg/injection, schedule: Q01DX005 (ip), vehicle: distilled water + alcohol): 0 of 5 | survivor count (dose: 25.0 mg/kg/injection, schedule: Q01DX005 (ip), vehicle: distilled water + alcohol): 0 of 5 | survivor count (dose: 50.0 mg/kg/injection, schedule: Q01DX005 (ip), vehicle: distilled water + alcohol): 0 of 5 | survivor count (dose: 100.0 mg/kg/injection, schedule: Q01DX005 (ip), vehicle: distilled water + alcohol): 0 of 5 | survivor count (dose: 200.0 mg/kg/injection, schedule: Q01DX005 (ip), vehicle: distilled water + alcohol): 0 of 5

COc1ccc2nc3cc(Cl)ccc3c(Nc3ccc(O)c(CN(CCCl)CCCl)c3)c2c1
survivor count (dose: 0.13 mg/kg/injection, schedule: Q01DX009 (ip), vehicle: saline with Tween-80): 6 of 6 | T/C (dose: 0.18 mg/kg/injection, schedule: Q01DX009 (ip), vehicle: saline with Tween-80): 136 % of control | survivor count (dose: 0.2 mg/kg/injection, schedule: Q01DX009 (ip), vehicle: saline with Tween-80): 6 of 6 | T/C (dose: 0.27 mg/kg/injection, schedule: Q01DX009 (ip), vehicle: saline with Tween-80): 131 % of control | T/C (dose: 0.4 mg/kg/injection, schedule: Q01DX009 (ip), vehicle: saline with Tween-80): 145 % of control

CCOC(=O)CN1CN(CCc2ccccc2)CC(C)(C)C1OCC (stereo not drawn)
T/C [3]: 128 % of control | T/C (dose: 100.0 mg/kg/injection, schedule: Q01DX009 (ip), vehicle: saline with Tween-80): 135 % of control | T/C (dose: 200.0 mg/kg/injection, schedule: Q01DX009 (ip), vehicle: saline with Tween-80): 137 % of control

Cc1c2c(Cc3ccccc3)nccc2c(C)c2c1c1ccccc1n2Cc1ccccc1
survivor count (dose: 25.0 mg/kg/injection, schedule: Q04DX003 (ip), vehicle: distilled water + Tween-80): 6 of 6 | survivor count (dose: 100.0 mg/kg/injection, schedule: Q04DX003 (ip), vehicle: distilled water + Tween-80): 6 of 6 | survivor count (dose: 200.0 mg/kg/injection, schedule: Q04DX003 (ip), vehicle: distilled water + Tween-80): 6 of 6

O=C(/C=C/C1N=C1c1ccccc1)c1ccccc1 (stereo not drawn)
survivor count [4]: 3 of 6 | survivor count [5]: 0 of 6

COc1cccc2c1C(=O)C(C1CO1)=CC2=O (stereo not drawn)
survivor count (dose: 50.0 mg/kg/injection, schedule: Q01DX001 (ip), vehicle: Klucel (hydroxypropylcellulose) (HPC)): 0 of 6 | survivor count (dose: 100.0 mg/kg/injection, schedule: Q01DX001 (ip), vehicle: Klucel (hydroxypropylcellulose) (HPC)): 0 of 6 | survivor count [4]: 0 of 6 | survivor count [5]: 0 of 6

O=C(N1CCC2(CC1)SSC1(CCN(C(=O)C(F)(F)F)CC1)S2)C(F)(F)F
survivor count (dose: 400.0 mg/kg/injection, schedule: Q04DX003 (ip), vehicle: saline with Tween-80): 6 of 6

O=C(O)c1ccc(N2N=C3C(=CC(=O)c4ccccc43)SCC2=O)cc1
survivor count (dose: 50.0 mg/kg/injection, schedule: Q01DX005 (ip), vehicle: saline + Tween-80 + alcohol): 1 of 6 and 2 of 5 | survivor count (dose: 100.0 mg/kg/injection, schedule: Q01DX005 (ip), vehicle: saline + Tween-80 + alcohol): 0 of 6 | survivor count (dose: 200.0 mg/kg/injection, schedule: Q01DX005 (ip), vehicle: saline + Tween-80 + alcohol): 0 of 6

COP(=O)(N/N=C/C(=O)O)OC
survivor count (dose: 400.0 mg/kg/injection, schedule: Q01DX009 (ip), vehicle: water): 1 of 6

Cc1cc(N(C)C)c2ccc3c(ccc4c(N(C)C)cc(C)nc43)c2n1
survivor count [3]: 6 of 6

[CH3][Sn]([CH3])([O]S(=O)c1ccc(Cl)cc1)[O]S(=O)c1ccc(Cl)cc1 (stereo not drawn)
survivor count [5]: 0 of 6

Cn1/c(=N\NC(=O)c2ccncc2)sc2ccccc21
survivor count [6]: 6 of 6 | survivor count [7]: 5 of 6 | survivor count [8]: 0 of 6

O=C(NCCCl)Oc1c(Cl)cc(Cl)cc1Cl
survivor count (dose: 50.0 mg/kg/injection, schedule: Q01DX005 (ip), vehicle: Klucel (hydroxypropylcellulose) (HPC)): 4 of 6 | survivor count (dose: 75.0 mg/kg/injection, schedule: Q01DX005 (ip), vehicle: Klucel (hydroxypropylcellulose) (HPC)): 3 of 6

CC1CC2OC(=O)CC2C(O)C2(C)C(OC(C)(C)C)CCC12 (stereo not drawn)
survivor count (dose: 200.0 mg/kg/injection, schedule: Q01DX005 (ip), vehicle: Klucel (hydroxypropylcellulose) (HPC)): 5 of 6

Nc1nc2ccc(CNc3ccc(C(=O)NC(CC(=O)O)C(=O)O)cc3)cc2c(=O)[nH]1 (stereo not drawn)
T/C [7]: 128 % of control [5 of 6 alive] | T/C [8]: 139 % of control

C=C[Si](C)(C)c1ccc([Si](C)(C)C=C)cc1
survivor count (dose: 50.0 mg/kg/injection, schedule: Q01DX009 (ip), vehicle: saline): 6 of 6

COC(=O)C(C)n1c(C)csc1=S (stereo not drawn)
survivor count [2]: 3 of 6

CSC(=S)C(CNc1ncccn1)c1ccccc1 (stereo not drawn)
survivor count (dose: 240.0 mg/kg/injection, schedule: Q01DX005 (ip), vehicle: Klucel + Tween-80): 6 of 6

O=C([O-])C(=O)[N-]CCC[N-]C(=O)C(=O)[N-]CCC[N-]C(=O)C(=O)[O-].[Cu+2].[Cu+2].[Na+]
survivor count (dose: 60.0 mg/kg/injection, schedule: Q01DX005 (ip), vehicle: saline with Tween-80): 0 of 6 | survivor count (dose: 120.0 mg/kg/injection, schedule: Q01DX005 (ip), vehicle: saline with Tween-80): 0 of 6 | survivor count [1]: 0 of 6

CCC/C(=N\NC(N)=NC)c1ccc(Cl)cc1
survivor count (dose: 100.0 mg/kg/injection, schedule: Q04DX002 (ip), vehicle: saline): 1 of 6

CC1(C)CCCC2(C)C1CCC1(C)OC3=CC(=O)C(O)=CC3=CC12 (stereo not drawn)
survivor count [6]: 0 of 6

CCOc1nnc(-c2ccc(OC)c(OC)c2)o1
survivor count (dose: 25.0 mg/kg/injection, schedule: Q01DX009 (ip), vehicle: other): 6 of 6 | survivor count (dose: 50.0 mg/kg/injection, schedule: Q01DX009 (ip), vehicle: other): 6 of 6

O=C1CC2C(C1Nc1ccccc1)C1C(=Nc3ccccc3)C(Nc3ccccc3)=CC1N2c1ccccc1 (stereo not drawn)
survivor count (dose: 60.0 mg/kg/injection, schedule: Q01DX005 (ip), vehicle: Klucel (hydroxypropylcellulose) (HPC)): 6 of 6 | survivor count (dose: 120.0 mg/kg/injection, schedule: Q01DX005 (ip), vehicle: Klucel (hydroxypropylcellulose) (HPC)): 6 of 6 | survivor count (dose: 240.0 mg/kg/injection, schedule: Q01DX005 (ip), vehicle: Klucel (hydroxypropylcellulose) (HPC)): 6 of 6
